Patent US20230277564A1, “CANNABINOIDAL COMPOSITIONS FOR THE TREATMENT OF DISEASE” (The State of Israel, Ministry of Agriculture & Rural …, priority 2020, published 2023)
For at least one compound, name, drawing or mass did not settle the structure.

Assays:
Format in all cases: cell-based
IL-7 = experiment: qPCR of IL-7 RNA steady state level in TNFα-treated A549 cells; settings: TNFα (300 μg/mL), 6 hours, FCBD 7 μg/mL, Dex 4 μg/mL
FcγRII = experiment: qPCR of FcγRII mRNA in PMA-treated KG1 cells; settings: FCBD and FCBD:std 7 μg/mL, Ruxolitinib 100 μg/mL, versus vehicle control
SCARB1 = experiment: qPCR of SCARB1 mRNA in PMA-treated KG1 cells; settings: FCBD and FCBD:std 7 μg/mL, Ruxolitinib 100 μg/mL

SMILES | expression level of IL-7 (IL-7) | mRNA expression of FcγRII (FcγRII) | mRNA expression of SCARB1 (SCARB1)
C[C@@H]1C[C@H]2[C@@H]3CCC4=CC(=O)C=C[C@]4(C)[C@@]3(F)[C@@H](O)C[C@]2(C)[C@@]1(O)C(=O)CO [dexamethasone, Dexamethasone] | substantially reduced |  | 
N#CC[C@H](C1CCCC1)n1cc(-c2ncnc3[nH]ccc23)cn1 [Ruxolitinib] |  | reduced | reduced
